# Earlier results in US20250319068A1, “TREATMENT OF DISEASES VIA ADMINISTRATION OF BUNTANETAP AND AN […] AGENT” (ANNOVIS BIO, INC., priority 2024, published 2025).
# At least one compound was matched to its structure with a doubt left.
# Details: 3 phase 3 clinical studies; cited from earlier work
smiles,measurement,value
"CN1CC[C@@]2(C)c3cc(OC(=O)Nc4ccccc4)ccc3N(C)[C@@H]12 [phenserine, (−)-N-phenylcarbamoyl eseroline]",outcome of phase 3 clinical studies,failed
